# Library screening results

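Whole-cell assay for inhibitors of Mycobacterium tuberculosis growth, labelled Cornell in the record; the read-out is not stated. The concentration is filed as 10 mM, unlikely as a test dose, so the dose is not known. Higher means stronger inhibition (inferred from two other growth screens of the library). About 53,000 compounds were tested under these conditions; 1.7% (about 900) showed 50% or more at least once.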

Each number is a percent effect as filed. How 0% and 100% were set is not recorded. Most values in the screen are low, and negative values occur. Compounds were drawn at random from those tested, without regard to their results.

| structure | percent effect |
|---|---|
| `c1cnnc(NCC2CN(CCn3cncn3)CCO2)c1` (stereo unspecified) | -9.542 |
| `CCc1ccccc1C(=O)N1C[C@@H](CN2CCOCC2)[C@@H](CO)C1` | 3.022 |
| `Cc1nn(C)c(C)c1OCC(=O)N1CCCc2c(F)ccc(F)c21` | 30.66 |
| `COC(=O)[C@@H](Nc1nc(C2CCCC2)nc2c1cnn2C)[C@@H](C)O` | 11.3 |
| `COCCS(=O)(=O)Cc1csc(NC(C)=O)n1` | 3.611 |
| `Cc1cc(N2CCC(N(C)C(=O)c3sccc3C)CC2)nc(C)n1` | -14.13 |
| `COc1cc(C)c(S(=O)(=O)CC(=O)N(C)C2CC2)cc1OC` | -16.93 |
| `CCc1nnc(C(C)N2CCc3cncnc3C2)o1` (stereo unspecified) | -17.38 |
| `CCCNC(=O)CNc1ccccc1OCCC(=O)OC` | 18.72 |
| `COc1ccccc1OCCN1CCC(N2CCNC2=O)CC1` | 0.643 |
| `CO[C@H]1CCN(Cc2ccoc2)C[C@@H]1Cc1ccccc1.O=C(O)C(F)(F)F` | -15.21 |
| `CCN1CC2(CC1=O)CN(C(C)=O)CCN(C(=O)NC)C2` (stereo unspecified) | -1.403 |
| `O=C(CN1CCOCS1(=O)=O)NCCc1ccc(Cl)cc1` | 27.16 |
| `O=C1CCCN1c1cccc(CNCc2nc(C3CC3)no2)c1` | 6.182 |
| `OCCC1CN(c2nc(-c3ccncc3)nc3c2CCNCC3)CCO1` (stereo unspecified) | 2.088 |
| `Cc1nc(C(C)NC(=O)c2cn(Cc3ccc(Cl)cc3)nn2)n[nH]1` (stereo unspecified) | 37.69 |
| `O=C(NC(CN1CCCC1)c1ccccc1)c1c(O)cc(F)cc1F` (stereo unspecified) | 26.19 |
| `CCCN1CCC(NC(=O)NCCc2nc(CC)c(C)s2)CC1` | 23.11 |
| `CC(=O)N1N=C(c2cccs2)OC1C(=O)NCc1ccc(C)o1` (stereo unspecified) | 17.49 |
| `CCN(C)Cc1cccc(CNC(=O)NCCc2ccccn2)c1` | -4.96 |
| `[H][C@]12CC[C@]([H])(CN(C(C)=O)C1)N(S(=O)(=O)c1ccccc1Cl)C2` | 22.02 |
| `COCc1nccc(C2CCCN(Cc3ccc(C#N)cc3)C2)n1` (stereo unspecified) | -0.1485 |
| `CCC1CN(C(=O)c2cncc(C)c2)CCC(=O)N1Cc1ccccc1` (stereo unspecified) | 0.1133 |
| `Cc1nn(C)c2cnn(Cc3ccc(C(=O)NCC4CC4)o3)c12` | 21.68 |
| `CN(C)C(=O)CCC[S+]([O-])Cc1cc(Cl)ccc1Cl` (stereo unspecified) | 7.332 |
| `CN1CCN(Cc2cn3c(n2)CN(C(=O)N2CCCC2)CC3)CC1` | 3.314 |
| `Nc1nc2c(c(N3CCCC(CN4CCCC4=O)C3)n1)CCNCC2` (stereo unspecified) | 0.4794 |
| `Cc1ccc(S(=O)(=O)N2CSCC2C(=O)NCC(F)(F)F)cc1C` (stereo unspecified) | -6.81 |
| `CNS(=O)(=O)c1ccc(CN(C)Cc2nc3ccc(F)cc3[nH]2)cc1` | 10.56 |
| `Cc1noc(Cl)c1CCC(=O)N1CCN(CC(C)(C)O)CC1` | -28.12 |
| `Cc1nn(C(C)(C)C)c(=O)n1CC(=O)NCC(F)(F)F` | 7.47 |
| `O=C1COc2cc(C(=O)NCc3ccc(Cl)s3)ccc2N1` | 10.23 |
| `Nc1ccc(C(=O)N2CCCC(c3nccn3Cc3cscn3)C2)cn1` (stereo unspecified) | 10.31 |
| `CS(=O)(=O)CCN1CCc2c(ncn2C2CC2)C1` | -0.04025 |
| `Cc1ccc2cc(C3(O)CCN(C(=O)CN4CCCC4)CC3)ccc2n1` | 21.27 |
| `Cc1cc(-n2nnc(C(=O)O)c2-c2ccncc2)ccc1F` | -11.93 |
| `CN(Cc1cc(Br)cn1C)C(=O)c1cscn1` | 11.11 |
| `CCn1cc2c(n1)C(COC)CN(C(=O)COc1ccccc1C)C2` (stereo unspecified) | 6.151 |
| `CCOC(=O)CN1CCC2(CC1)CC(=O)c1ccc3ccccc3c1O2` | -1.878 |
| `CCOCc1cnc2n1CCN(C(=O)c1cn(C)c3ccccc13)C2C` (stereo unspecified) | 2.699 |
| `O=C(c1ccc[nH]1)N1CC2(CCN(c3nccs3)C2)C1` | 12.43 |
| `CCc1nnc(CN2CCN(C(C)=O)CC2)o1` | 2.1 |
| `O=C(O)C(F)(F)F.[H][C@@]12CCN(C(=O)c3ncccn3)C[C@]1(COc1ccccn1)CCO2` | -10.82 |
| `CC(=O)N1CCC(c2n[nH]cc2-c2ccnc(N)c2)C1` (stereo unspecified) | -32.92 |
| `NC(=O)C1CCN(c2nc3nccc(-c4ccccc4)c3c(=O)[nH]2)CC1` | 19.88 |
| `CC(C)C1CN(S(=O)(=O)N(C)C)CCCN1Cc1ccc(F)cc1` (stereo unspecified) | 5.034 |
| `Cc1cnn(CC2CCCN2C(=O)c2cccc(CC#N)c2)c1` (stereo unspecified) | 16.61 |
| `CN(CCN1CCN(c2ccccc2)CC1)C(=O)Nc1ccccn1` | 14.01 |
| `NCCc1n[nH]c(=O)n1-c1cccc2ccccc12` | -19.2 |
| `CS(=O)(=O)N1CCN(C(=O)Cn2ccc3c(Cl)cccc32)CC1` | 5.799 |
| `O=C(O)C(F)(F)F.[H][C@@]12C[C@@H](c3nc(C4CC4)cs3)O[C@]1([H])CN(C(=O)C1CCOCC1)C2` | 15.3 |
| `COc1cccc(CCNC(=O)NC(C)C)c1O` | 2.333 |
| `CCC(C(=O)NCC1CCN(c2ccncc2)CC1)N(C)C` (stereo unspecified) | 14.33 |
| `FC1(F)CCN(Cc2ccccn2)CC12CCN(c1cnccn1)C2.O=C(O)C(F)(F)F.O=C(O)C(F)(F)F.O=C(O)C(F)(F)F` (stereo unspecified) | -1.38 |
| `[H][C@@]12CN(C(=O)[C@H]3CCCO3)C[C@]1([H])C(=O)N(CC(C)C)C2` | 10.38 |
| `Cc1cccc(C(Nc2nccc(C)n2)C2CC2)n1` (stereo unspecified) | 16.32 |
| `Cc1cnn(CC(=O)NCC2(O)CCCc3ccccc32)c1` (stereo unspecified) | -2.586 |
| `O=C(O)C(F)(F)F.[H][C@@]12CN(Cc3ccoc3)CCO[C@]1([H])CN(C(=O)c1sccc1C)C2` | -8.656 |
| `Cc1ccc(-c2cn[nH]c2C2CCCN(c3cc(N)ncn3)C2)cc1` (stereo unspecified) | 27.97 |
| `CCOC(=O)N1CCN(C(=O)CCn2cccc2)CC1` | 49.24 |

The values are deposited in ChEMBL (CHEMBL3988442, “University of Dundee, Small-Polar-MMV Screening Library” (2021)).